In the supplement of paper PMC11006884:
The entries are a selection whose mix differs from that of the whole data set.

By UniProt entry, the sequences of proteins in these tests, tags left out. Where a name states a change or a piece, a line headed by the entry shows the natural chain unless it says otherwise.
UniProt Q9NWY4: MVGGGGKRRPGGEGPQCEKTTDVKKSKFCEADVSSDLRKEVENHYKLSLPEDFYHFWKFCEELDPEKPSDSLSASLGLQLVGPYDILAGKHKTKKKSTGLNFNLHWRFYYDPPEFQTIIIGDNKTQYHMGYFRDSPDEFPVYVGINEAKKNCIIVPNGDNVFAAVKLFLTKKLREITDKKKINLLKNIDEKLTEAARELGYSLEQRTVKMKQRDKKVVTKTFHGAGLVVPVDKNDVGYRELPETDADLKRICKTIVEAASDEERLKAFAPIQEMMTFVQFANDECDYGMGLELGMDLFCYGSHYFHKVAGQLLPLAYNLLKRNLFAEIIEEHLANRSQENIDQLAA
UniProt Q9UDR5: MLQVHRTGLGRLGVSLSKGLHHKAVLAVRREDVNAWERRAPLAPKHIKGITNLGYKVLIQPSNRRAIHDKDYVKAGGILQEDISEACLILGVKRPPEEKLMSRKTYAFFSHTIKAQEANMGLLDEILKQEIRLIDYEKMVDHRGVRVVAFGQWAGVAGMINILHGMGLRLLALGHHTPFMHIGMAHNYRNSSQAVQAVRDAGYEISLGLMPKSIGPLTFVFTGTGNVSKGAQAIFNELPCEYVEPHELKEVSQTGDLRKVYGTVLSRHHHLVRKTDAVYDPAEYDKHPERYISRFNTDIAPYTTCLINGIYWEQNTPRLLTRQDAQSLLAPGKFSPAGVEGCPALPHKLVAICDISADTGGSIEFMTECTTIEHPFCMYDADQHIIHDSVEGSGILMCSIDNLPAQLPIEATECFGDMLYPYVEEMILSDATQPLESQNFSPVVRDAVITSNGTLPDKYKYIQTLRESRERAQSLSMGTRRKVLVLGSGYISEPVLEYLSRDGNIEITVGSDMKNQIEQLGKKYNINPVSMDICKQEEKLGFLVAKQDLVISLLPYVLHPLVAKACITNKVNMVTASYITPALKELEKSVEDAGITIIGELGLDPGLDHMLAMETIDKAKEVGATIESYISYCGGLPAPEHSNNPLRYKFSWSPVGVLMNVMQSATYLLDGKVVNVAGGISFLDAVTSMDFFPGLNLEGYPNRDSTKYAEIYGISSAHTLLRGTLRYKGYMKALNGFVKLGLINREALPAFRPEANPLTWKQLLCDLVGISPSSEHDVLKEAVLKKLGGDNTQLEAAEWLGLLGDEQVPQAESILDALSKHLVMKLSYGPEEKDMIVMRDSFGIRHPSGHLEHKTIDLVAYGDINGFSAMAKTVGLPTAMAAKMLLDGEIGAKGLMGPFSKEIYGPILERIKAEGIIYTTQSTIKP
UniProt Q9P0K7: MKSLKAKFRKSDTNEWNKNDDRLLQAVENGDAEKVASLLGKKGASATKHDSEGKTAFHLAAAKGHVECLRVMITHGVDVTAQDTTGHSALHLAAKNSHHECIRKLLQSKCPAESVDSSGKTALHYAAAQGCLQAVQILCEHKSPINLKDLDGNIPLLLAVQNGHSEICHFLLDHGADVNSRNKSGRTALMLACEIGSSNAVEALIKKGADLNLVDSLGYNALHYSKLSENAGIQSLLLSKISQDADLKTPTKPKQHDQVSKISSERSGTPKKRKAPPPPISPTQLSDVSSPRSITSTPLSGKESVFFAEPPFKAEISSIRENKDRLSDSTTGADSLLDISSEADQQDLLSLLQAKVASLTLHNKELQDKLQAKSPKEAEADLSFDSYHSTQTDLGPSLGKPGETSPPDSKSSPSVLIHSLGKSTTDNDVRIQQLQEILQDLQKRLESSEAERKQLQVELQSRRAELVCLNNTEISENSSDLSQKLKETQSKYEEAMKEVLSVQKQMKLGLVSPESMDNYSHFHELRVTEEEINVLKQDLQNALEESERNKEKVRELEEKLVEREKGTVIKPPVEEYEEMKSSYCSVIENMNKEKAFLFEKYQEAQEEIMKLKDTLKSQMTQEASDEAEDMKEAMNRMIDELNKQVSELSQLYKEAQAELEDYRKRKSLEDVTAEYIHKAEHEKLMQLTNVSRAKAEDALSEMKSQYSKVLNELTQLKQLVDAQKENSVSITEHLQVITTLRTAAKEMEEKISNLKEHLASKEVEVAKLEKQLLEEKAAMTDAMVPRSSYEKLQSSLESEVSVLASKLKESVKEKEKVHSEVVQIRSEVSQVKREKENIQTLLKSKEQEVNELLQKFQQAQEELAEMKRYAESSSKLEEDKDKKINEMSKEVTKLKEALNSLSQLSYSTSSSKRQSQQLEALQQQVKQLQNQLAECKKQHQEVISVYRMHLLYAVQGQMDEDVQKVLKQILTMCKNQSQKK
UniProt Q9NVH0: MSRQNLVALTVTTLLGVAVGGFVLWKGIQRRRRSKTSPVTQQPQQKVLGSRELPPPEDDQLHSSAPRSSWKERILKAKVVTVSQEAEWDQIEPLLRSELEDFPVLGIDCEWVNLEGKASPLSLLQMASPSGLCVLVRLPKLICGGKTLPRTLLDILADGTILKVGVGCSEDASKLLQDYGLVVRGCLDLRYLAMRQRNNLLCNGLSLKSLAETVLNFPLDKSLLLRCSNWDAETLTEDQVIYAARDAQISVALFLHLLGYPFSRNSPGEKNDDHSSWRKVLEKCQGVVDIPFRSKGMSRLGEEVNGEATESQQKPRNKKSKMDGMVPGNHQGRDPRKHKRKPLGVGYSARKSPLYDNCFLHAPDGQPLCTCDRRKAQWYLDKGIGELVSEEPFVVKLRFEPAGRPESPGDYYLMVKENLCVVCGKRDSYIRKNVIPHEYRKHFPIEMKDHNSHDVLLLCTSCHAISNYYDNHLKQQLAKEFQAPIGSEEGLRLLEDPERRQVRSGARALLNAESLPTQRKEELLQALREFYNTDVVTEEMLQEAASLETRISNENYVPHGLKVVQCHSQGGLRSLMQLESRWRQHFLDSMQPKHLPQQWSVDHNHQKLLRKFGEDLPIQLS
UniProt Q9UBL3, whole entry, looked up: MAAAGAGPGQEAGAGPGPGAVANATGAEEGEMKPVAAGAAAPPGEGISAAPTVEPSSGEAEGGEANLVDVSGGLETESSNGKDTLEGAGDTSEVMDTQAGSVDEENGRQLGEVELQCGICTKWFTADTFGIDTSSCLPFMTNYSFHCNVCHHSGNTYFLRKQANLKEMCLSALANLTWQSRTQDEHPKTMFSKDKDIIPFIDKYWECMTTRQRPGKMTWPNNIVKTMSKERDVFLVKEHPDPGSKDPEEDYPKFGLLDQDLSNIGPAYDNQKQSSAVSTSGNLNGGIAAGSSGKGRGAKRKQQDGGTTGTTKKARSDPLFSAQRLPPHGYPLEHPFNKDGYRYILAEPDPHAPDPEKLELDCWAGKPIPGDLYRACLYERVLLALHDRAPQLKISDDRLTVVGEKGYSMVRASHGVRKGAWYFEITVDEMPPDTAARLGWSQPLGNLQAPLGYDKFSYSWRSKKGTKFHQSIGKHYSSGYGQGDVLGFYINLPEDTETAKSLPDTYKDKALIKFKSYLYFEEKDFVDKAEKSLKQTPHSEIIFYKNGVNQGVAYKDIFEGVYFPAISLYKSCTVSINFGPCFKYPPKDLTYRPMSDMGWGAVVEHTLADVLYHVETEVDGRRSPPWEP
UniProt Q9NY27: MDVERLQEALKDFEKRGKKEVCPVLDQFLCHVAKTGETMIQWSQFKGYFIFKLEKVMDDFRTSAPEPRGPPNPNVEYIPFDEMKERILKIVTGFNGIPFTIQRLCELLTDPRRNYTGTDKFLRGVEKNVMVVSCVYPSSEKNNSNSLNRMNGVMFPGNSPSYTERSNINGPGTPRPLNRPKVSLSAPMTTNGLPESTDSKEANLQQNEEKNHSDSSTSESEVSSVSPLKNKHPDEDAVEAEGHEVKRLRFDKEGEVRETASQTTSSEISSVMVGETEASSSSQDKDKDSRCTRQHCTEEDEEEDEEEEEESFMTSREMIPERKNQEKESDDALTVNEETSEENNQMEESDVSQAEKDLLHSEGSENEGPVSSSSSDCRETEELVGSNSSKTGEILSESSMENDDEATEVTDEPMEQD
UniProt Q9NVR5: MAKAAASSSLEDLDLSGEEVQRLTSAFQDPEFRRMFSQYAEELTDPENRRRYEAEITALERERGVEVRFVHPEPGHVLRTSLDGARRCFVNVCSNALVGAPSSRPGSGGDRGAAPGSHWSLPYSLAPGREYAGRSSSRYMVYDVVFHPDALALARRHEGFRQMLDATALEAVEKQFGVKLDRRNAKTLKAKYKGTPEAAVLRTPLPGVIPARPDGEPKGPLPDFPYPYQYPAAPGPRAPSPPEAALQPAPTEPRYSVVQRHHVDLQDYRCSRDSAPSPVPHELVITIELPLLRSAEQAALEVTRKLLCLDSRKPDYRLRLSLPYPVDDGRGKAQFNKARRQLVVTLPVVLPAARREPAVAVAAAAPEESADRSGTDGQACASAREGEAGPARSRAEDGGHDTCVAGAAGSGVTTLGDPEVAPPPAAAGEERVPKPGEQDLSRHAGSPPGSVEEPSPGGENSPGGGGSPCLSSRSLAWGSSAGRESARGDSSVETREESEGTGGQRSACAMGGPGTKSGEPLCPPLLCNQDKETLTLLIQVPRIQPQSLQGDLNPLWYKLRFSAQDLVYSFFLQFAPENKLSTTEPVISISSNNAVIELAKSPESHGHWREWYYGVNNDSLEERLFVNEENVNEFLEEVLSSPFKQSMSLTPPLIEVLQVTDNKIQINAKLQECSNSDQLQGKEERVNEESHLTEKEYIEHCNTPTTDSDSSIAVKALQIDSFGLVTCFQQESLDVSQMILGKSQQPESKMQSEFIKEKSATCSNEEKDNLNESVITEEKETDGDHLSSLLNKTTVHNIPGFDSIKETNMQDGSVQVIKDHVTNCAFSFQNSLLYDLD
UniProt Q9UBD5: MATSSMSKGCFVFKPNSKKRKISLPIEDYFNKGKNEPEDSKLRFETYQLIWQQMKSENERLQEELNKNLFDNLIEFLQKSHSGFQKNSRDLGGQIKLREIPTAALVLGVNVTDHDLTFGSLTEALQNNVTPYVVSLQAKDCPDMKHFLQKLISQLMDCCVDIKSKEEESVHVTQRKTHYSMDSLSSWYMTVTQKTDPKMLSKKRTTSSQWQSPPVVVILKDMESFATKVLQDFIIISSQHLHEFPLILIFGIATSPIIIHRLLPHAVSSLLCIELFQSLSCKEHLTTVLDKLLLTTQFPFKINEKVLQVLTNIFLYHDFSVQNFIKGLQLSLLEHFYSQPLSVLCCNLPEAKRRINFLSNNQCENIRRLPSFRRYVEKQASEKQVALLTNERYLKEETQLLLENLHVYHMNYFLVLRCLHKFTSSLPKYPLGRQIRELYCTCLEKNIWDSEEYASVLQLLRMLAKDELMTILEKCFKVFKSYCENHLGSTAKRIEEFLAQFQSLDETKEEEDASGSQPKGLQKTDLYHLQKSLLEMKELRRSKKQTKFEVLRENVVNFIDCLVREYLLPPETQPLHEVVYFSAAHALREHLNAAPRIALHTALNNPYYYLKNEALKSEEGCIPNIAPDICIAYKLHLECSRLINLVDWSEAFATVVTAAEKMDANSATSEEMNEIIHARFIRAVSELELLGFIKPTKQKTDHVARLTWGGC
UniProt Q9UBE0: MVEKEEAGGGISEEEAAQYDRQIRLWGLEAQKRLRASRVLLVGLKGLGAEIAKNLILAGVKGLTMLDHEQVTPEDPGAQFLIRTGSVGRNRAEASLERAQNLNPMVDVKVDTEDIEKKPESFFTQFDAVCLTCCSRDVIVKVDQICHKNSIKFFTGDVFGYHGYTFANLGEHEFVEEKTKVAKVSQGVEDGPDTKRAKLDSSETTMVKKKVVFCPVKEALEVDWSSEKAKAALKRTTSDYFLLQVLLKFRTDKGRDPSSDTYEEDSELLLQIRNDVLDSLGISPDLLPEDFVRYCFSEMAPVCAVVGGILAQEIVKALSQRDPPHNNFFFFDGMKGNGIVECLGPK
UniProt Q9P289: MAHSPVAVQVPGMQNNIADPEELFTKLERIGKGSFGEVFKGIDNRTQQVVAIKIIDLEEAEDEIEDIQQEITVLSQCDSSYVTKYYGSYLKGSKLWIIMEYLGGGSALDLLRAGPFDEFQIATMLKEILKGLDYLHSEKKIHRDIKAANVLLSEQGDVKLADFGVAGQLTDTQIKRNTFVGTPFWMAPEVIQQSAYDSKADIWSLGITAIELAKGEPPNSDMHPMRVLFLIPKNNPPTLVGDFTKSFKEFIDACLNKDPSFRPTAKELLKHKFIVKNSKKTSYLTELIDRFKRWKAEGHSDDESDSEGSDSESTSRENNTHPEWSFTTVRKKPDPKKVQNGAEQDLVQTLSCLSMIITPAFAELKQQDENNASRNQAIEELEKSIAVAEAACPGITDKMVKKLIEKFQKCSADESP
UniProt Q9NX46: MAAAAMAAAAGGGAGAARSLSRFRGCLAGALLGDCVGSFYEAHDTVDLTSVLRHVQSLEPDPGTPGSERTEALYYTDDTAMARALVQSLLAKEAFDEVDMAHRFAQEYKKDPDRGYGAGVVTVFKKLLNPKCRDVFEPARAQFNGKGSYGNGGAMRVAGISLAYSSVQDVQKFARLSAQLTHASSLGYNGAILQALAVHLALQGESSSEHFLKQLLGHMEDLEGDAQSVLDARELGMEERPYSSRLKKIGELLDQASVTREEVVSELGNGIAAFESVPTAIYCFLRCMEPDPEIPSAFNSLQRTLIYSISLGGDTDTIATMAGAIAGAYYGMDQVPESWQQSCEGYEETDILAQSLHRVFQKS

The targets below were run with COC(=O)C#Cc1ccccc1 [methyl 3-phenylpropiolate] (assay: log2 ratio of iodoacetamide-alkyne labeling of the cysteine site, DMSO over compound (competition); higher = stronger covalent engagement of the cysteine by the compound, active = 1 or more). Details: 500 µM; treatment time 1 h; system: HEK293T cell lysate.
Method in brief: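 Electrophile (500 µM) or vehicle was added to HEK293T lysate (2 mg/mL) for 1 h at ambient temperature before iodoacetamide alkyne labelling (1 h) and click coupling to sCIP-TMT reagents. After pooling, overnight trypsin digestion at 37 °C, streptavidin enrichment and acid elution, peptides were measured by Orbitrap Eclipse LC-MS/MS with FAIMS and quantified in FragPipe. Each cysteine's log2 competition ratio compares mean control-channel with mean compound-channel reporter intensity, control over compound. Data came from duplicate channels across three replicates, excluding cysteines quantified in only one replicate.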
CPSF2 C577 (UniProt Q9P2I0) was tested, and the “log2 ratio of iodoacetamide-alkyne labeling” value (from here on “log2 ratio”) was inactive: 0.0423. With NXF1 C252 (UniProt Q9UBU9) the “log2 ratio” value was inactive: 0.0876. For UniProt Q9NYV4_C1039, the “log2 ratio” value was inactive: 0.794. In the case of UniProt Q9NWY4_C29, the “log2 ratio” value is reported as inactive: 0.445. In the case of AASS C534 (UniProt Q9UDR5), the “log2 ratio” value is reported as inactive: 0.0127. In the case of RAI14 C110 (UniProt Q9P0K7), the “log2 ratio” value is reported as inactive: -0.377. TES C416 (UniProt Q9UGI8) was tested, and the “log2 ratio” value was inactive: 0.0269. With UniProt Q9NVH0_C227 the “log2 ratio” value was inactive: 0.265. In the case of ANKFY1 C1156 (UniProt Q9P2R3), the “log2 ratio” value is reported as inactive: 0.475. For UBAP1 C45 (UniProt Q9NZ09), the “log2 ratio” value was inactive: 0.273. ASH2L C362 (UniProt Q9UBL3) was tested, and the “log2 ratio” value was inactive: 0.138. LARS C248 (UniProt Q9P2J5) was tested, and the “log2 ratio” value was inactive: -0.687. For FAM49B C10 (UniProt Q9NUQ9), the “log2 ratio” value was inactive: -0.0928. For CGGBP1 C167 (UniProt Q9UFW8), the “log2 ratio” value was inactive: 0.0581. UniProt Q9NW64_C24 was tested, and the “log2 ratio” value was inactive: 0.351. For VPS18 C445 (UniProt Q9P253), the “log2 ratio” value was inactive: -0.049. With PPP4R2 C134 (UniProt Q9NY27) the “log2 ratio” value was inactive: 0.137. For UniProt Q9NVR5_C673, the “log2 ratio” value was inactive: 0.698. UniProt Q9UBD5_C159 was tested, and the “log2 ratio” value was active: 1.13. In the case of SAE1 C214 (UniProt Q9UBE0), the “log2 ratio” value is reported as inactive: 0.502. In the case of UniProt Q9P289_C392, the “log2 ratio” value is reported as inactive: 0.322. With HDAC6 C426 (UniProt Q9UBN7) the “log2 ratio” value was inactive: 0.156. With FAM120A C892 (UniProt Q9NZB2) the “log2 ratio” value was active: 1.45. ADPRHL2 C132 (UniProt Q9NX46) was tested, and the “log2 ratio” value was inactive: -0.0495. In the case of ATXN10 C405 (UniProt Q9UBB4), the “log2 ratio” value is reported as inactive: 0.25. ATXN10 C354 (UniProt Q9UBB4) was tested, and the “log2 ratio” value was active: 1.32. ERAP1 C486 (UniProt Q9NZ08) was tested, and the “log2 ratio” value was inactive: 0.733. In the case of CCDC88C C1520 (UniProt Q9P219), the “log2 ratio” value is reported as active: 1.15. For DDX18 C472 (UniProt Q9NVP1), the “log2 ratio” value was inactive: 0.325. With RCC2 C428 (UniProt Q9P258) the “log2 ratio” value was inactive: 0.696. In the case of ANKFY1 C742 (UniProt Q9P2R3), the “log2 ratio” value is reported as inactive: 0.439. With UniProt Q9NXE8_C107 the “log2 ratio” value was inactive: 0.236. In the case of C9orf78 C145 (UniProt Q9NZ63), the “log2 ratio” value is reported as inactive: 0.207. In the case of PHRF1 C878 (UniProt Q9P1Y6), the “log2 ratio” value is reported as inactive: -0.0465. In the case of ADPRHL2 C287 (UniProt Q9NX46), the “log2 ratio” value is reported as inactive: 0.184. For UniProt Q9P260_C624, the “log2 ratio” value was inactive: 0.299. In the case of UniProt Q9NVA2_C268, the “log2 ratio” value is reported as inactive: 0.822.
